Reference: article PMC8200828, “Phylogenetic and Structural Analysis of NIN-Like Proteins With a Type I/II PB1 Domain That Regulates Oligomerization for Nitrate Response” (Frontiers in Plant Science, 2021)
Where a chain is given by its changes, count along the chain named. In names and notes the source's numbering stands. Results are given in words; binding and its absence hold for the method and conditions named.

Columns and labels:
[1] = target: NLP7 PB1m1 (K867A) (Arabidopsis thaliana) (UniProt Q84TH9); experiment: dynamic light scattering; wild type and mutants after SEC, mutants in buffer A, 25 °C; concentration not given; self-association; both purified
[2] = target: NLP7 PB1m1 (K867A) (Arabidopsis thaliana) (UniProt Q84TH9); experiment: SEC; Superdex S-75 in buffer A (20 mM Tris-HCl pH 8.8, 0.5 M NaCl, 10% glycerol), calibrated with gel filtration standard markers; self-association; both purified
[3] = target: NLP7 PB1m2 (D909A/D911A) (Arabidopsis thaliana) (UniProt Q84TH9); experiment: dynamic light scattering; wild type and mutants after SEC, mutants in buffer A, 25 °C; concentration not given; self-association; both purified
[4] = target: NLP7 PB1m2 (D909A/D911A) (Arabidopsis thaliana) (UniProt Q84TH9); experiment: SEC; Superdex S-75 in buffer A (20 mM Tris-HCl pH 8.8, 0.5 M NaCl, 10% glycerol), calibrated with gel filtration standard markers; self-association; both purified
[5] = target: NLP7 PB1m3 (K867A/D909A/D911A) (Arabidopsis thaliana) (UniProt Q84TH9); experiment: dynamic light scattering; wild type and mutants after SEC, mutants in buffer A, 25 °C; concentration not given; self-association; both purified
[6] = target: NLP7 PB1m3 (K867A/D909A/D911A) (Arabidopsis thaliana) (UniProt Q84TH9); experiment: SEC; Superdex S-75 in buffer A (20 mM Tris-HCl pH 8.8, 0.5 M NaCl, 10% glycerol), calibrated with gel filtration standard markers; self-association; both purified

B1: NLP7 PB1m1 (K867A) (domain or fragment, UniProt Q84TH9 863-945)
chain: TVTIAASYKDDIIRFRISSGSGIMELKDEVAKRLKVDAGTFDIKYLDDDNEWVLIACDADLQECLEIPRSSRTKIVRLLVHDV
[1]
  binding: no binding
[2]
  binding: no binding

B2: NLP7 PB1m2 (D909A/D911A) (domain or fragment, UniProt Q84TH9 863-945)
chain: B1 chain with A5K, D47A, D49A
[3]
  binding: no binding
[4]
  binding: no binding

B3: NLP7 PB1m3 (K867A/D909A/D911A) (domain or fragment, UniProt Q84TH9 863-945)
chain: B1 chain with D47A, D49A
[5]
  binding: no binding
[6]
  binding: no binding
